{"source": "the supplement of paper PMC3334620", "note": "Over roughly 33,000 sequences, “E-score (-0.5 to 0.5)” has its median near -0.0034; the highest 2% begin near 0.25. The list shows a part of the results."}
{"target": "T1, Yap3 (UniProt P38749)", "T1 sequence": "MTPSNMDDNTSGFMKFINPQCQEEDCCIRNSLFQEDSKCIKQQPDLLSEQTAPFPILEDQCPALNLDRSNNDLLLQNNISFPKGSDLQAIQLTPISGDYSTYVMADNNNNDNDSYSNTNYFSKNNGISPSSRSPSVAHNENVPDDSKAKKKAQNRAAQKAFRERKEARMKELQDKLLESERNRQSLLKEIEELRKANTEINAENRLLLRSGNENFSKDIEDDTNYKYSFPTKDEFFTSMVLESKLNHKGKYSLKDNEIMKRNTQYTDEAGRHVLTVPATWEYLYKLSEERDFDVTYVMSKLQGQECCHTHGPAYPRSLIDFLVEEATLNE", "test": "PBM E-score (8-mer binding enrichment) (E-score (-0.5 to 0.5)); higher = stronger / more preferred TF binding", "conditions": "protein concentration: 100 nM; construct: GST-full length", "how_it_was_run": "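Universal all-10-mer Agilent arrays, double-stranded by primer extension on fresh or once-stripped slides, were probed with about 100-200 nM GST-tagged yeast transcription factors made by PURExpress. Fluorescent anti-GST detected bound protein, and masliner normalised the scans. E-scores from the Universal PBM Analysis Suite were given to each ungapped eight-base word pooled with its reverse complement.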"}
{"sequence": "GGCAGGAC", "PBM E-score": -0.211}
{"sequence": "ACGTTGCT", "PBM E-score": 0.109}
{"sequence": "CACTGTAC", "PBM E-score": 0.0111}
{"sequence": "CATAATGC", "PBM E-score": 0.114}
{"sequence": "CACATGCG", "PBM E-score": 0.0891}
{"sequence": "ACATCATA", "PBM E-score": 0.194}
{"sequence": "CCATCCCC", "PBM E-score": -0.274}
{"sequence": "AGATTATG", "PBM E-score": 0.129}
{"sequence": "AATTAGCC", "PBM E-score": 0.0688}
{"sequence": "AGCGTGGG", "PBM E-score": -0.0987}
{"sequence": "CCGGTCCC", "PBM E-score": -0.233}
{"sequence": "ATTACGAG", "PBM E-score": 0.228}
{"sequence": "TCGTCACA", "PBM E-score": 0.013}
{"sequence": "AGAAAAAC", "PBM E-score": -0.00619}
{"sequence": "CTCTTAGA", "PBM E-score": -0.0363}
{"sequence": "CCTCTTCA", "PBM E-score": -0.19}
{"sequence": "ATAAGTAA", "PBM E-score": 0.236}
{"sequence": "ATAAATAA", "PBM E-score": 0.307}
{"sequence": "CAATGGAA", "PBM E-score": 0.166}
{"sequence": "GTGAGCCA", "PBM E-score": 0.00058}
{"sequence": "GCCCCTGA", "PBM E-score": -0.138}
{"sequence": "AACTTGCA", "PBM E-score": 0.108}
{"sequence": "ACGGTTTG", "PBM E-score": -0.111}
{"sequence": "CGGGATCC", "PBM E-score": 0.0776}
{"sequence": "CTTTACTA", "PBM E-score": 0.22}
{"sequence": "CCGTGAAA", "PBM E-score": 0.0883}
{"sequence": "CCACTTTC", "PBM E-score": 0.0563}
{"sequence": "AACTAAAT", "PBM E-score": 0.102}
{"sequence": "ACAGGCCC", "PBM E-score": -0.291}
{"sequence": "AATCACCA", "PBM E-score": 0.203}
{"sequence": "CACTAGCA", "PBM E-score": -0.019}
{"sequence": "ATGGGCTG", "PBM E-score": -0.183}
{"sequence": "AGATACGA", "PBM E-score": 0.237}
{"sequence": "TACCAAAA", "PBM E-score": 0.192}
{"sequence": "CATTCTTC", "PBM E-score": 0.0193}
{"sequence": "GTAACGAC", "PBM E-score": -0.0321}
{"sequence": "CCCACTGC", "PBM E-score": -0.0698}
{"sequence": "GGCCACGA", "PBM E-score": -0.048}
{"sequence": "CAGCCCAA", "PBM E-score": -0.0513}
{"sequence": "TAGCTCCA", "PBM E-score": -0.0175}
{"sequence": "AGTGGCGG", "PBM E-score": -0.0571}
{"sequence": "CGAACCGA", "PBM E-score": -0.0278}
{"sequence": "TCGTGCCA", "PBM E-score": 0.00074}
{"sequence": "CAGGGACG", "PBM E-score": -0.121}
{"sequence": "TCGGCCAA", "PBM E-score": -0.117}
{"sequence": "CGAATGGC", "PBM E-score": 0.0852}
{"sequence": "CCGTCAAA", "PBM E-score": -0.0141}
{"sequence": "GATTTGAA", "PBM E-score": 0.105}
{"sequence": "TCGCCCGA", "PBM E-score": -0.087}
{"sequence": "CGGATAGC", "PBM E-score": 0.052}
{"sequence": "GAGCCAGA", "PBM E-score": -0.0308}
{"sequence": "GAGAGCCC", "PBM E-score": -0.368}
{"sequence": "ACAGTCTG", "PBM E-score": -0.0848}
{"sequence": "GACACGCC", "PBM E-score": -0.0195}
{"sequence": "AGCTGGTA", "PBM E-score": -0.19}
{"sequence": "CTCAGTCA", "PBM E-score": -0.0269}
{"sequence": "GGAAATTA", "PBM E-score": 0.332}
{"sequence": "CTGACTGC", "PBM E-score": -0.146}
{"sequence": "GTGGAGGA", "PBM E-score": -0.018}
{"sequence": "ACTAAGGA", "PBM E-score": 0.135}
{"sequence": "ATTAGAGC", "PBM E-score": 0.116}
{"sequence": "ACATCGAT", "PBM E-score": 0.0921}
{"sequence": "TACTCAGA", "PBM E-score": 0.193}
{"sequence": "AAAGGAAG", "PBM E-score": 0.0221}
{"sequence": "GCCTGATA", "PBM E-score": -0.0309}
{"sequence": "CTCGCGAA", "PBM E-score": -0.137}
{"sequence": "CTAGGCAC", "PBM E-score": -0.0902}
{"sequence": "GTACCTCA", "PBM E-score": 0.0926}
{"sequence": "AGCTCGCA", "PBM E-score": 0.00629}
{"sequence": "GACCACTC", "PBM E-score": -0.131}
{"sequence": "CAAATTTC", "PBM E-score": 0.173}
{"sequence": "TACGATAA", "PBM E-score": 0.223}
{"sequence": "AACTCGCT", "PBM E-score": 0.116}
{"sequence": "ACATACCG", "PBM E-score": -0.00463}
{"sequence": "AGCATCAT", "PBM E-score": 0.0467}
{"sequence": "CACTGTTC", "PBM E-score": -0.122}
{"sequence": "TAAGTTCA", "PBM E-score": 0.0657}
{"sequence": "CTAGCAGC", "PBM E-score": -0.0449}
{"sequence": "GCGAACGC", "PBM E-score": -0.105}
{"sequence": "CAGCTTGC", "PBM E-score": -0.0524}
{"sequence": "ATCTGCAG", "PBM E-score": 0.0186}
{"sequence": "CGCAGTAA", "PBM E-score": 0.17}
{"sequence": "GCAGCTAA", "PBM E-score": -0.176}
{"sequence": "GAAATTAC", "PBM E-score": 0.265}
{"sequence": "GCAGTCTA", "PBM E-score": -0.0323}
{"sequence": "GCATCGTA", "PBM E-score": -0.059}
{"sequence": "AGTTCGGG", "PBM E-score": 0.0635}
{"sequence": "GGTTAGTA", "PBM E-score": 0.0941}
{"sequence": "AAAAGTAC", "PBM E-score": 0.211}
{"sequence": "ATATACAG", "PBM E-score": 0.184}
{"sequence": "ATGTTACA", "PBM E-score": 0.0732}
{"sequence": "CCAGATTA", "PBM E-score": 0.0902}
{"sequence": "ACCCCTTG", "PBM E-score": -0.327}
{"sequence": "ACTAGTTC", "PBM E-score": 0.0926}
{"sequence": "AAGTTTCT", "PBM E-score": 0.144}
{"sequence": "ATCCGTCA", "PBM E-score": 0.0808}
{"sequence": "TCAGCAAA", "PBM E-score": 0.15}
{"sequence": "ATTTCCTA", "PBM E-score": 0.227}
{"sequence": "ACGGGCGG", "PBM E-score": -0.15}
{"sequence": "CGCGACCG", "PBM E-score": -0.00067}
{"sequence": "GAGAGCGC", "PBM E-score": -0.0761}
{"sequence": "AAGCTTTC", "PBM E-score": 0.0821}
{"sequence": "ACGCCTAT", "PBM E-score": -0.0267}
{"sequence": "TCGACTCA", "PBM E-score": 0.127}
{"sequence": "CAAGCCGG", "PBM E-score": 0.05}
{"sequence": "CTTAGCAC", "PBM E-score": -0.0486}
{"sequence": "GCTATAAA", "PBM E-score": 0.125}
{"sequence": "GTTGTTAA", "PBM E-score": 0.298}
{"sequence": "ACCATACA", "PBM E-score": 0.00929}
{"sequence": "GCTAAGAA", "PBM E-score": -0.0659}
{"sequence": "CGTAAGAG", "PBM E-score": 0.141}
{"sequence": "AGGTACCT", "PBM E-score": -0.132}
{"sequence": "CGTTCGTA", "PBM E-score": 0.213}
{"sequence": "ACGTACCG", "PBM E-score": 0.0422}
{"sequence": "GAATGATC", "PBM E-score": 0.0388}
{"sequence": "CCTGAATC", "PBM E-score": -0.0272}
{"sequence": "TATGGAGA", "PBM E-score": 0.106}
{"sequence": "GGTTTCCA", "PBM E-score": -0.0109}
{"sequence": "CGTTAGCA", "PBM E-score": 0.0832}
{"sequence": "AGCATCGG", "PBM E-score": -0.184}
{"sequence": "ACTGCTAC", "PBM E-score": 0.0438}
{"sequence": "AGTTAGTA", "PBM E-score": 0.195}
{"sequence": "AGGATCTG", "PBM E-score": -0.084}
{"sequence": "CTTAGCCC", "PBM E-score": -0.0308}
{"sequence": "AGCCGGCT", "PBM E-score": -0.343}
{"sequence": "GACGAAAA", "PBM E-score": 0.264}
{"sequence": "AGGCTTTA", "PBM E-score": -0.0587}
{"sequence": "CGGGCAAA", "PBM E-score": -0.00437}
{"sequence": "CAGAGCCA", "PBM E-score": -0.271}
{"sequence": "ATAGATGA", "PBM E-score": 0.0274}
{"sequence": "ATCCTTAC", "PBM E-score": 0.0371}
{"sequence": "ACACGGAA", "PBM E-score": 0.0309}
{"sequence": "GTTTTGGA", "PBM E-score": -0.0305}
{"sequence": "CTCGACAA", "PBM E-score": -0.0404}
{"sequence": "CAATATGG", "PBM E-score": -0.00272}
{"sequence": "AACCTACG", "PBM E-score": 0.116}
{"sequence": "ATCGATAA", "PBM E-score": 0.0958}
{"sequence": "ACCCGTGG", "PBM E-score": -0.293}
{"sequence": "ATCTTCGA", "PBM E-score": 0.00078}
{"sequence": "CTGGCAAA", "PBM E-score": 0.0635}
{"sequence": "AATACCCG", "PBM E-score": 0.0423}
{"sequence": "ACTATGTA", "PBM E-score": -0.0022}
{"sequence": "ATGACTTG", "PBM E-score": -0.02}
{"sequence": "TCCTCCAA", "PBM E-score": -0.0561}
{"sequence": "CTGAACTC", "PBM E-score": -0.146}
{"sequence": "GAGTGTGC", "PBM E-score": -0.037}
{"sequence": "ATGACTGC", "PBM E-score": -0.127}
{"sequence": "ACTCCAAT", "PBM E-score": 0.0453}
{"sequence": "GCGTGAAA", "PBM E-score": 0.145}
{"sequence": "GTGCGATA", "PBM E-score": 0.0332}
{"sequence": "GCCCACGA", "PBM E-score": -0.193}
{"sequence": "AGCGAGTC", "PBM E-score": -0.0628}
{"sequence": "AGTGCAAG", "PBM E-score": 0.0318}
{"sequence": "AACCGAGC", "PBM E-score": -0.019}
{"sequence": "ATGGCCTC", "PBM E-score": -0.0534}
{"sequence": "CCTAGGGA", "PBM E-score": 0.00627}
{"sequence": "GAGAATGC", "PBM E-score": 0.145}
{"sequence": "ACAACGCC", "PBM E-score": 0.0392}
{"sequence": "TCAATAGA", "PBM E-score": 0.00876}
{"sequence": "CCCCAAGC", "PBM E-score": -0.118}
{"sequence": "CGGCCGAG", "PBM E-score": -0.0519}
{"sequence": "TACATAAA", "PBM E-score": 0.251}
{"sequence": "GAGCGCCC", "PBM E-score": -0.266}
{"sequence": "CACAATTC", "PBM E-score": 0.194}
{"sequence": "GGGCGAGA", "PBM E-score": -0.133}
{"sequence": "TCAATTCA", "PBM E-score": 0.0527}
{"sequence": "GCCTCCTA", "PBM E-score": -0.0978}
{"sequence": "CCCTTCCC", "PBM E-score": -0.206}
{"sequence": "CGCTGAAA", "PBM E-score": -0.132}
{"sequence": "AGCTATAT", "PBM E-score": 0.102}
{"sequence": "AGCGGACG", "PBM E-score": 0.0065}
{"sequence": "AGTCTCCC", "PBM E-score": -0.103}
